Test results from PMC12533208.
Results are given in words; binding and its absence hold for the method and conditions named. In cells and extracts the contact can be indirect. Some results given as binding are weak or reduced against the parent protein; the word gives no strength.

Molecular target: T1, neutral sphingomyelinase 1 (nSMase1) (UniProt O60906)
T1 sequence: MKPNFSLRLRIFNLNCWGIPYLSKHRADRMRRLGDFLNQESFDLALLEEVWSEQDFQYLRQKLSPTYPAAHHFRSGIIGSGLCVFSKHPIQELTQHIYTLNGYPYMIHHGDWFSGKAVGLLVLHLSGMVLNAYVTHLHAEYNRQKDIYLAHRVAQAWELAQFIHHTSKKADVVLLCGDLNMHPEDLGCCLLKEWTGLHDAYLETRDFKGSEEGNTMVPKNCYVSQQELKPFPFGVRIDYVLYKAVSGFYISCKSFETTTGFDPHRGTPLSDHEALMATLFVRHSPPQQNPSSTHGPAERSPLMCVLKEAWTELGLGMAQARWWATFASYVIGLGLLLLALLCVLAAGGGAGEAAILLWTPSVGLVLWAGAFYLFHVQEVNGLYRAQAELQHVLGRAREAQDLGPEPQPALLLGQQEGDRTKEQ
Experiment: co-IP; astrocyte lysates (IP lysis buffer), control or hypoxia-treated cells; primary antibody or species-matched IgG control (1:100), protein A/G magnetic beads 2 h at 4 °C, three washes with IP lysis buffer, Western blot; nSMase1-bound HK2 quantified

B1: hexokinase 2 (HK2) (enzyme, UniProt P52789 1-917)
chain: MIASHLLAYFFTELNHDQVQKVDQYLYHMRLSDETLLEISKRFRKEMEKGLGATTHPTAAVKMLPTFVRSTPDGTEHGEFLALDLGGTNFRVLWVKVTDNGLQKVEMENQIYAIPEDIMRGSGTQLFDHIAECLANFMDKLQIKDKKLPLGFTFSFPCHQTKLDESFLVSWTKGFKSSGVEGRDVVALIRKAIQRRGDFDIDIVAVVNDTVGTMMTCGYDDHNCEIGLIVGTGSNACYMEEMRHIDMVEGDEGRMCINMEWGAFGDDGSLNDIRTEFDQEIDMGSLNPGKQLFEKMISGMYMGELVRLILVKMAKEELLFGGKLSPELLNTGRFETKDISDIEGEKDGIRKAREVLMRLGLDPTQEDCVATHRICQIVSTRSASLCAATLAAVLQRIKENKGEERLRSTIGVDGSVYKKHPHFAKRLHKTVRRLVPGCDVRFLRSEDGSGKGAAMVTAVAYRLADQHRARQKTLEHLQLSHDQLLEVKRRMKVEMERGLSKETHASAPVKMLPTYVCATPDGTEKGDFLALDLGGTNFRVLLVRVRNGKWGGVEMHNKIYAIPQEVMHGTGDELFDHIVQCIADFLEYMGMKGVSLPLGFTFSFPCQQNSLDESILLKWTKGFKASGCEGEDVVTLLKEAIHRREEFDLDVVAVVNDTVGTMMTCGFEDPHCEVGLIVGTGSNACYMEEMRNVELVEGEEGRMCVNMEWGAFGDNGCLDDFRTEFDVAVDELSLNPGKQRFEKMISGMYLGEIVRNILIDFTKRGLLFRGRISERLKTRGIFETKFLSQIESDCLALLQVRAILQHLGLESTCDDSIIVKEVCTVVARRAAQLCGAGMAAVVDRIRENRGLDALKVTVGVDGTLYKLHPHFAKVMHETVKDLAPKCDVSFLQSEDGSGKGAALITAVACRIREAGQR
  binding: binds
